According to the supplement of paper PMC10735217:
“And” between values parts separate entries of the source, which are not always exact repeats. Equal values may be shown once. Where a name gives a salt, the structure may show the parent alone. The list shows a part of the results. Repeats in this data set agree poorly, so a single value says little.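 In a drug-repurposing library screen, luminescence reads luciferase driven by eight TEAD-binding elements, stably integrated into human kidney-derived cells. Compounds scoring over five robust Z scores above the plate mean are called hits.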

Test system: HEK293A TEAD-LUC reporter
Test: TEAD-luciferase reporter activity (YAP activation), robust Z score vs plate; higher = stronger YAP/TEAD activation
Conditions: 24 h

Row | Compound | TEAD-luciferase reporter activity (compound concentration: 200 nM) | TEAD-luciferase reporter activity (compound concentration: 2 uM) | TEAD-luciferase reporter activity (compound concentration: 10 uM)
1 | CC1(C)[C@H](C=C(Cl)Cl)[C@H]1C(=O)OCc1c(F)c(F)cc(F)c1F | inactive: -0.981 | inactive: 0.194 | inactive: 2.5
2 | CC12CCC3C4CCCC=C4CCC3C1CCC2O (stereo not drawn) | inactive: -0.443 | inactive: -0.712 | inactive: -0.537
3 | Clc1ccc(N2CCN(Cc3c[nH]c4ncccc34)CC2)cc1 | inactive: -1.53 | inactive: -1.18 | inactive: 1.11
4 | Oc1ccc2c3c1OC1C(O)CCC4(O)C(C2)N(CC2CCC2)CCC314 (stereo not drawn) [nalbuphine, IS Pharma] | inactive: 0.46 | inactive: 0.704 | inactive: 4.2
5 | CC(C)NCCc1ccccc1 | inactive: 3.77 | inactive: 3.2 | inactive: 0.656
6 | c1ccc2c(c1)Cc1sc(Cc3c[nH]cn3)nc1-2 | inactive: -0.273 | inactive: -0.131 | inactive: 0.316
7 | O=C(C1CCCN1C(=O)c1ccccc1Cl)N1CCC(N2Cc3ccccc3C2=O)CC1 (stereo not drawn) | inactive: -0.51 |  | inactive: 0.101
8 | Cc1ccc(-n2nccn2)c(C(=O)N2CCN(c3nc4cc(Cl)ccc4o3)CC[C@H]2C)c1 [Suvorexant] | inactive: -1.9 | inactive: 0.766 | inactive: 2.9
9 | CC(C)Cn1c(=O)cc(C(=O)O[C@@H]2C[C@H]3CC[C@@H](C2)N3C)c2ccccc21 | inactive: -1.29 | inactive: 0.917 | inactive: 0.131
10 | O=C1CC[C@H]2[C@H]3Cc4cccc(O)c4[C@@]2(CCN3CC2CC2)C1 | inactive: 0.203 | inactive: -0.646 | inactive: -0.831
11 | COc1cc(C)nc(O)c1CNC(=O)c1c(C)n([C@H](C)C2CCN(CC(F)(F)F)CC2)c2ccccc12 | inactive: -0.603 | inactive: 1.17 | inactive: 3.54
12 | C[C@]12CC[C@H](OS(=O)(=O)[O-])CC1=CC[C@@H]1[C@@H]2CC[C@]2(C)C(=O)CC[C@@H]12 [Prasterone sulfate] |  | inactive: 2.74 | 
13 | C[C@]12CC[C@H](OS(=O)(=O)[O-])CC1=CC[C@@H]1[C@@H]2CC[C@]2(C)C(=O)CC[C@@H]12 | inactive: -0.944 |  | inactive: -1.85
14 | C[N+](C)(C)CCCCCCCCCC[N+](C)(C)C | inactive: -1.43 | inactive: -0.559 | inactive: -0.555
15 | CCC1(C)CC(=O)NC(=O)C1 | inactive: -1.65 | inactive: -0.403 | inactive: -1.23
16 | CCC1(c2cccc(O)c2)CCCCN(C)C1 (stereo not drawn) [meptazinol] | inactive: 0.893 | inactive: -1.04 | inactive: 0.0138
17 | O=C(N[C@H]1N=C(c2ccccc2F)c2cccc3c2N(CC3)C1=O)c1cc2ccccc2[nH]1 | inactive: 0.746 and inactive: -0.645 | inactive: 2.22 and inactive: 1.86 | 
18 | COc1ccccc1CN[C@H]1C2CCN(CC2)[C@H]1C(c1ccccc1)c1ccccc1 | inactive: 0.942 | inactive: 0.0809 | inactive: 0.445
19 | C=CCN1C[C@H](C(=O)N(CCCN(C)C)C(=O)NCC)C[C@@H]2c3cccc4[nH]cc(c34)C[C@H]21 | inactive: -1.69 | inactive: -0.512 | inactive: 1.39
20 | COc1cc2c(cc1OC)C(c1ccc(N)cc1)=NN=C(C)C2 | inactive: 1.57 | inactive: -0.0959 | inactive: -0.4
21 | C=CCN.C=CCNCCCCCCCCCC.C=CCNCCCCCC[N+](C)(C)C.ClCC1CO1 [colesevelam hydrochloride] | inactive: -1.47 | inactive: 0.985 | inactive: 0.12
22 | CCOC(=O)C1(c2ccccc2)CCN(CCc2ccc(N)cc2)CC1 | inactive: 0.275 | inactive: -2.05 | inactive: 0.364
23 | CC(C)C12O[C@H]1[C@@H]1O[C@@]13C1(C)CCC4=C(COC4=O)[C@]1(O)C[C@@H]1O[C@@]13[C@@H]2O (stereo partly drawn) [5(R)-Hydroxytriptolide] | inactive: -2.85 | inactive: -1.99 | inactive: -2.77
24 | O=C1C(O)N=C(c2ccccc2F)c2cc(Cl)ccc2N1CCO (stereo not drawn) | inactive: -1.29 | inactive: -0.583 | inactive: -1.4
25 | N=C1NC(=O)C(c2ccccc2)O1 (stereo not drawn) [Pemoline] | inactive: 1.07 | inactive: -1.16 | inactive: -0.358
26 | CN(C)C[C@@H]1CCCC[C@@]1(O)c1cccc(O)c1 [O-Desmethyltramadol] | inactive: -0.35 | inactive: -0.0784 | inactive: 0.917
27 | Nc1nc(N)nc(Nc2ccc([As]3SCC(CO)S3)cc2)n1 (stereo not drawn) [Melarsoprol] | inactive: -1.44 | inactive: 1.3 | inactive: 4.13
28 | COc1cccc([C@@]2(O)CCCC[C@@H]2CN(C)C)c1 [Tramadol XL] |  | inactive: -1.5 | 

Row | Compound | TEAD-luciferase reporter activity (compound concentration: 200 nM) | TEAD-luciferase reporter activity (compound concentration: 2 uM) | TEAD-luciferase reporter activity (compound concentration: 10 uM)
29 | COc1cccc([C@@]2(O)CCCC[C@@H]2CN(C)C)c1 [Tramadol] | inactive: -0.353 |  | inactive: -0.715
30 | C=C(C)[C@H]1CN[C@H](C(=O)O)[C@H]1CC(=O)O | inactive: -0.367 | inactive: -0.76 | inactive: 0.257
31 | CCC1=C(C)NN=C(c2ccc(OC)c(OC)c2)c2cc(OC)c(OC)cc21 [dextofisopam] | inactive: 2.61 | inactive: -0.674 | inactive: -1.55
32 | O=C(Nc1c(Cl)cncc1Cl)C(=O)c1cn(Cc2ccc(F)cc2)c2ncccc12 [Ronomilast] | inactive: -0.436 | inactive: -0.902 | inactive: -0.658
33 | CC(=O)NC(Cc1ccc(N(CCCl)CCCl)cc1)C(=O)O (stereo not drawn) | inactive: 0.0573 | inactive: -0.687 | inactive: 1.08
34 | COc1cccc2c1C(=O)c1c(O)c3c(c(O)c1C2=O)C[C@@](O)(C(=O)CO)C[C@@H]3O[C@H]1C[C@H](N2CCO[C@H](OC)C2)[C@H](O)[C@H](C)O1 | inactive: -1.26 | inactive: -2.32 | inactive: -1.18
35 | C[C@H]1CCCC(O)CCC/C=C/c2cc(O)cc(O)c2C(=O)O1 (stereo partly drawn) | inactive: -0.686 | inactive: -1.9 | inactive: -1.28
36 | C[C@]12C[C@H]3S[C@H]3C[C@@H]1CC[C@@H]1[C@@H]2CC[C@]2(C)[C@@H](O)CC[C@@H]12 | inactive: -0.232 | inactive: -1.28 | inactive: -0.39
37 | O=C1C2CCN(CC2)C1(CO)CO | inactive: -0.0669 | inactive: -1.04 | inactive: 0.445
38 | CC1NCCOC1c1ccccc1 (stereo not drawn) | inactive: -0.0142 | inactive: -0.832 | inactive: -1.13
39 | CC(C)Cc1ccc(C(Nc2cccc(C(=O)c3cn(CCCC(=O)O)c4ccccc34)c2)c2ccc(CC(C)C)cc2)cc1 | inactive: -0.588 | inactive: -1.38 | inactive: -0.882
40 | CC(C)(NC(=O)c1cc2c(n(CC3CCCCC3)c1=O)CCCCCC2)C(=O)NN | inactive: -1.02 | inactive: -0.855 | inactive: -0.379
41 | NC(=O)c1cccc([C@H]2C[C@H]3CC[C@@H](C2)N3CCN(CC2CCCCC2)C(=O)[C@@H](O)CO)c1 [Axelopran] | inactive: -0.871 | inactive: 0.0308 | inactive: 1.66
42 | CC(C)OC(=O)N[C@H]1Cc2c(n(Cc3ccccn3)c3ccc(C#N)cc23)C1 | inactive: -0.72 | inactive: -1.57 | inactive: 0.819
43 | CC12CCC3C4CCC(=O)C=C4CCC3C1CCC2OC(=O)CCc1ccccc1 (stereo not drawn) [Nandrolone phenylpropionate] | inactive: 2.28 | inactive: -1.88 | inactive: -1.51
44 | CC(C)(SCC(=O)Nc1ccc([As](O)O)cc1)[C@@H](N)C(=O)O | inactive: -0.0772 | inactive: 0.721 | inactive: -0.177
45 | CN1CCC=C2c3nc(N)sc3CCC21 (stereo not drawn) | inactive: -0.836 | inactive: -0.973 | inactive: -1.22
46 | CC(=O)C1CC[C@@]2(O)C3CCC4=CC(=O)CCC4(C)C3CCC12C (stereo partly drawn) | inactive: 1.83 | inactive: -0.726 | inactive: 1.37
47 | CC(C)[C@@]1(NC(=O)[C@@H]2C[C@@H]3c4cccc5[nH]cc(c45)C[C@H]3N(C)C2)O[C@@]2(O)[C@@H]3CCCN3C(=O)[C@H](Cc3ccccc3)N2C1=O | inactive: -3.1 | inactive: -0.859 | inactive: -0.0149
48 | C=CCC1(C(C)C#CCC)C(=O)N=C(O)N(C)C1=O (stereo not drawn) [Methohexital] | inactive: -0.771 | inactive: -0.955 | inactive: 2.08
49 | Cc1cccc[n+]1[Pt-2]([NH3+])([Cl])[Cl] [picoplatin] |  | inactive: 0.0759 | 
50 | Cc1cccc[n+]1[Pt-2]([NH3+])([Cl])[Cl] | inactive: 1.81 |  | inactive: -0.196
51 | C[As](C)SC[C@H](NC(=O)CC[C@H](N)C(=O)O)C(=O)NCC(=O)O [Darinaparsin] | inactive: -1 | inactive: -1.77 | inactive: 1.92
52 | Cc1nnc2n1-c1ccc(Cl)cc1C(c1ccccc1Cl)=NC2 [Triazolam] | inactive: -1.32 |  | inactive: 1.34
53 | C[CH2][Hg][S]c1ccccc1C(=O)[O-] | inactive: 2.65 | inactive: 1.02 | active: 9.15
54 | C[N+]1(C)CCCC1COC(=O)C(O)(c1ccccc1)c1ccccc1 (stereo not drawn) [Poldine Methylsulfate] | inactive: 0.841 | inactive: 1.67 | inactive: 0.695
55 | COc1ccc2c3c1O[C@H]1[C@@H](O)C=C[C@H]4[C@@H](C2)N(C)CC[C@@]341 [Codeine phosphate] | inactive: 0.232 | inactive: 1.19 | inactive: -2.44

An excerpt of these results, in CSV form.
Row,Compound,TEAD-luciferase reporter activity (compound concentration: 200 nM),TEAD-luciferase reporter activity (compound concentration: 2 uM),TEAD-luciferase reporter activity (compound concentration: 10 uM)
36,C[C@]12C[C@H]3S[C@H]3C[C@@H]1CC[C@@H]1[C@@H]2CC[C@]2(C)[C@@H](O)CC[C@@H]12,inactive: -0.232,inactive: -1.28,inactive: -0.39
37,O=C1C2CCN(CC2)C1(CO)CO,inactive: -0.0669,inactive: -1.04,inactive: 0.445
38,CC1NCCOC1c1ccccc1 (stereo not drawn),inactive: -0.0142,inactive: -0.832,inactive: -1.13
39,CC(C)Cc1ccc(C(Nc2cccc(C(=O)c3cn(CCCC(=O)O)c4ccccc34)c2)c2ccc(CC(C)C)cc2)cc1,inactive: -0.588,inactive: -1.38,inactive: -0.882
40,CC(C)(NC(=O)c1cc2c(n(CC3CCCCC3)c1=O)CCCCCC2)C(=O)NN,inactive: -1.02,inactive: -0.855,inactive: -0.379
41,NC(=O)c1cccc([C@H]2C[C@H]3CC[C@@H](C2)N3CCN(CC2CCCCC2)C(=O)[C@@H](O)CO)c1 [Axelopran],inactive: -0.871,inactive: 0.0308,inactive: 1.66
42,CC(C)OC(=O)N[C@H]1Cc2c(n(Cc3ccccn3)c3ccc(C#N)cc23)C1,inactive: -0.72,inactive: -1.57,inactive: 0.819
43,CC12CCC3C4CCC(=O)C=C4CCC3C1CCC2OC(=O)CCc1ccccc1 (stereo not drawn) [Nandrolone phenylpropionate],inactive: 2.28,inactive: -1.88,inactive: -1.51
44,CC(C)(SCC(=O)Nc1ccc([As](O)O)cc1)[C@@H](N)C(=O)O,inactive: -0.0772,inactive: 0.721,inactive: -0.177
45,CN1CCC=C2c3nc(N)sc3CCC21 (stereo not drawn),inactive: -0.836,inactive: -0.973,inactive: -1.22
46,CC(=O)C1CC[C@@]2(O)C3CCC4=CC(=O)CCC4(C)C3CCC12C (stereo partly drawn),inactive: 1.83,inactive: -0.726,inactive: 1.37
47,CC(C)[C@@]1(NC(=O)[C@@H]2C[C@@H]3c4cccc5[nH]cc(c45)C[C@H]3N(C)C2)O[C@@]2(O)[C@@H]3CCCN3C(=O)[C@H](Cc3ccccc3)N2C1=O,inactive: -3.1,inactive: -0.859,inactive: -0.0149
48,C=CCC1(C(C)C#CCC)C(=O)N=C(O)N(C)C1=O (stereo not drawn) [Methohexital],inactive: -0.771,inactive: -0.955,inactive: 2.08
49,Cc1cccc[n+]1[Pt-2]([NH3+])([Cl])[Cl] [picoplatin],,inactive: 0.0759,
50,Cc1cccc[n+]1[Pt-2]([NH3+])([Cl])[Cl],inactive: 1.81,,inactive: -0.196
